Laboratory results as given in the supplement of paper PMC12067093, “Discovery and optimisation of a covalent ligand for TRIM25 and its application to targeted protein ubiquitination” (Chemical Science, 2025).
The other results are listed elsewhere or left out.

Sequences of proteins named here, by UniProt entry; tags and fusion partners are left off. A change or cut given only in a name is not applied to a line headed by its entry.
UniProt Q86UV5: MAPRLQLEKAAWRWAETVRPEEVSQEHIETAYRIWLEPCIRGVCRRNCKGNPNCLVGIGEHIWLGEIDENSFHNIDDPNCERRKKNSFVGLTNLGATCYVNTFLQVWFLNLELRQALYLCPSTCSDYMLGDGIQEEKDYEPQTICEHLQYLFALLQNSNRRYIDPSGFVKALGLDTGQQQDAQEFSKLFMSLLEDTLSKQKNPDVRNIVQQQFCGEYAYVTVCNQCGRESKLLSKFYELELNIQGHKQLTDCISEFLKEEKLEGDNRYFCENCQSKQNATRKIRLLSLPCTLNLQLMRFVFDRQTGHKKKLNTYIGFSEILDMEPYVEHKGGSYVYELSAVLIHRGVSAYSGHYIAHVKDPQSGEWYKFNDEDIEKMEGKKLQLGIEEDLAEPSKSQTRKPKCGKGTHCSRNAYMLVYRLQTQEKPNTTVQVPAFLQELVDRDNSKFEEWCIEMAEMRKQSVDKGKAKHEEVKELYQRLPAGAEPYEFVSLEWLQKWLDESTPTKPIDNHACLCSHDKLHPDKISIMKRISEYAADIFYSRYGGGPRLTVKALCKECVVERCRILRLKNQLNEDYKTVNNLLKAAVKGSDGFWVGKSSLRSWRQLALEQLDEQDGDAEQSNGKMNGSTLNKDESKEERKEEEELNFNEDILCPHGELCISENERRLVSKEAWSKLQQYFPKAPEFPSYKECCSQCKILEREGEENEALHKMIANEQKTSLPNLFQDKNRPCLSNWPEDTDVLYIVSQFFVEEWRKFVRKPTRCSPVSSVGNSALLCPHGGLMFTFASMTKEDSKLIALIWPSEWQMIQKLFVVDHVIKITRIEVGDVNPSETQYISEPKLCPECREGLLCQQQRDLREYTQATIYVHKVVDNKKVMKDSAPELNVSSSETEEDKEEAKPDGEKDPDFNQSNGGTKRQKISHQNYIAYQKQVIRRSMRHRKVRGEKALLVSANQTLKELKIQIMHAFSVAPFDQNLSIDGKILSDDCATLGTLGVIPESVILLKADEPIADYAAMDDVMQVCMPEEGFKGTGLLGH
UniProt Q92900: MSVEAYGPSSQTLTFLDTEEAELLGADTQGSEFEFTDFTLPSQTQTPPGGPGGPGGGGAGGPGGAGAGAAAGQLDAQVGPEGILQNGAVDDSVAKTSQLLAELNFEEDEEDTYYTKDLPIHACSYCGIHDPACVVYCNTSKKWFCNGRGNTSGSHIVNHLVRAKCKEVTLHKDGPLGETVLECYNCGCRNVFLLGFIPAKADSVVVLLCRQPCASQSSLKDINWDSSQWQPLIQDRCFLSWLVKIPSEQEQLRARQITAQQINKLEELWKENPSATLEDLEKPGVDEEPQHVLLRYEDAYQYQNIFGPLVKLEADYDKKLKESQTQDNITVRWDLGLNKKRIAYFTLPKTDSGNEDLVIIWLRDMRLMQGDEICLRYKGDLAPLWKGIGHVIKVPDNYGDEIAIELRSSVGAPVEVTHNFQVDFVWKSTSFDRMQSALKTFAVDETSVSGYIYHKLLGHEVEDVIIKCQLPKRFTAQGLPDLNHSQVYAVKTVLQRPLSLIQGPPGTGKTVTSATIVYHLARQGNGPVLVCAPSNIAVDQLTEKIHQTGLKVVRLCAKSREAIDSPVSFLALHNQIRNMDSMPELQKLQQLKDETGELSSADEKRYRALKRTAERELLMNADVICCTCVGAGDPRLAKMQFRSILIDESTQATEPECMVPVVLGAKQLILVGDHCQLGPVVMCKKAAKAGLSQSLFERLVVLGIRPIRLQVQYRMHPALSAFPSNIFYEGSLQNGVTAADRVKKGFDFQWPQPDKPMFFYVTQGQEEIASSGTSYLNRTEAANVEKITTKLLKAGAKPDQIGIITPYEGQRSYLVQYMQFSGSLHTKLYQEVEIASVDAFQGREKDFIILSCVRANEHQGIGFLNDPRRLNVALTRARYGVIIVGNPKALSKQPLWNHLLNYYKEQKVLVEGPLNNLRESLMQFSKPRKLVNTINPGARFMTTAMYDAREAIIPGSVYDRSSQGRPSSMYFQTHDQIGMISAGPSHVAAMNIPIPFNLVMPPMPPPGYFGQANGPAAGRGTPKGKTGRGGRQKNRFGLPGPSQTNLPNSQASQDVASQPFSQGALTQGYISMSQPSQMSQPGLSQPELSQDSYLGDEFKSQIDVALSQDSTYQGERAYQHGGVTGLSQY
UniProt Q9H9J4: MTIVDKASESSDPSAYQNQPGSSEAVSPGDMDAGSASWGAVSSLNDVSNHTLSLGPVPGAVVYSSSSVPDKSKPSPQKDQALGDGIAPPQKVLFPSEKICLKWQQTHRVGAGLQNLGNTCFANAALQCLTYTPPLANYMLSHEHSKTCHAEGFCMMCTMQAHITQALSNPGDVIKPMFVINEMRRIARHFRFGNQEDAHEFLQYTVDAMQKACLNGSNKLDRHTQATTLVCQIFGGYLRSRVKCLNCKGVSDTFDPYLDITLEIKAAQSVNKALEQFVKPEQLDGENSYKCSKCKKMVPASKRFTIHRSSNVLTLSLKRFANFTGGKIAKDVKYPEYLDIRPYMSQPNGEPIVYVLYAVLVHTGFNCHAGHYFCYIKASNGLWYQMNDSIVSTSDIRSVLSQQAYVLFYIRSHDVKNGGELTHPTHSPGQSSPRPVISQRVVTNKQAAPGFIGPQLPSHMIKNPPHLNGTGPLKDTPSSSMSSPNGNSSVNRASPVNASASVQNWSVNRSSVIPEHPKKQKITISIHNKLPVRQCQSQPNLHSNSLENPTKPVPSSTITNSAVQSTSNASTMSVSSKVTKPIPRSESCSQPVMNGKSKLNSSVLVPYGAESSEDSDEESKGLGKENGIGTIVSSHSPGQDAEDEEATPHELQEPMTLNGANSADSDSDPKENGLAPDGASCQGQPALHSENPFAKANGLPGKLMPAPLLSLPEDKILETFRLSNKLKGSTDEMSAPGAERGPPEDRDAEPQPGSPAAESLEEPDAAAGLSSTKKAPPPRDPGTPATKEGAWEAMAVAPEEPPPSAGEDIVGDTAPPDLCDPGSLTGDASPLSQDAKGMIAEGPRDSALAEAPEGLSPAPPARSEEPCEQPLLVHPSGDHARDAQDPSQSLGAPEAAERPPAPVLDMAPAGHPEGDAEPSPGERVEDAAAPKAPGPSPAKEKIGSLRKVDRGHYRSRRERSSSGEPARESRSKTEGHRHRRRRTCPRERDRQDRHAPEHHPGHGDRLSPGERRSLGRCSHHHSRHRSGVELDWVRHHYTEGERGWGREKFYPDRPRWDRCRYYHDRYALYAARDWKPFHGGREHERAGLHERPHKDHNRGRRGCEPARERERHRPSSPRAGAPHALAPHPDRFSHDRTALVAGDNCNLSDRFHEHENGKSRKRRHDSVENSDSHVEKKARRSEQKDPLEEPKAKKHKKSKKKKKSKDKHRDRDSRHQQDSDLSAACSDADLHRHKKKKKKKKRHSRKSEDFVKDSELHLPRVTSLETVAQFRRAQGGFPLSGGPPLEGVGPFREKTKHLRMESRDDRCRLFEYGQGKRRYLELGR
UniProt Q9C0B0: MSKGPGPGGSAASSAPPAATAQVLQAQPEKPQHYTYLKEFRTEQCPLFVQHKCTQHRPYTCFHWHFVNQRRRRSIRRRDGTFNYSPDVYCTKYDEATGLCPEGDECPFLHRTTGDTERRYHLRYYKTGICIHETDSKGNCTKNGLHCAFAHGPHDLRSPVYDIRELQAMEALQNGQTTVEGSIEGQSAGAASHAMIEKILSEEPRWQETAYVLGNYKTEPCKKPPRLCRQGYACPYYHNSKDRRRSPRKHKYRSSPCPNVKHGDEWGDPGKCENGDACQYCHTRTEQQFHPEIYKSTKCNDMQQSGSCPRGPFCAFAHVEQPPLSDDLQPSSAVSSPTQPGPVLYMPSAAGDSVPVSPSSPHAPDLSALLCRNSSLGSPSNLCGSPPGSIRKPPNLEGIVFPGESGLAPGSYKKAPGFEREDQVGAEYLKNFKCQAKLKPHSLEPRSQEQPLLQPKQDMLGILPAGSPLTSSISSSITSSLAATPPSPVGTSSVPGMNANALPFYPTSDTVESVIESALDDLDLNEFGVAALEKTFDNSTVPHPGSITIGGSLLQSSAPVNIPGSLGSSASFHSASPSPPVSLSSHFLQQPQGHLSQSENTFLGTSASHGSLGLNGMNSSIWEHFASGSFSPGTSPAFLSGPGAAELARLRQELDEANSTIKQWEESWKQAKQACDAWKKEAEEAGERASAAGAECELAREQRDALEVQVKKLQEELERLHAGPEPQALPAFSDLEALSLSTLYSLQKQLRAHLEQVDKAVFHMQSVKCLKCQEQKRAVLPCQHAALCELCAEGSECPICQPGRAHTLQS
UniProt O94966: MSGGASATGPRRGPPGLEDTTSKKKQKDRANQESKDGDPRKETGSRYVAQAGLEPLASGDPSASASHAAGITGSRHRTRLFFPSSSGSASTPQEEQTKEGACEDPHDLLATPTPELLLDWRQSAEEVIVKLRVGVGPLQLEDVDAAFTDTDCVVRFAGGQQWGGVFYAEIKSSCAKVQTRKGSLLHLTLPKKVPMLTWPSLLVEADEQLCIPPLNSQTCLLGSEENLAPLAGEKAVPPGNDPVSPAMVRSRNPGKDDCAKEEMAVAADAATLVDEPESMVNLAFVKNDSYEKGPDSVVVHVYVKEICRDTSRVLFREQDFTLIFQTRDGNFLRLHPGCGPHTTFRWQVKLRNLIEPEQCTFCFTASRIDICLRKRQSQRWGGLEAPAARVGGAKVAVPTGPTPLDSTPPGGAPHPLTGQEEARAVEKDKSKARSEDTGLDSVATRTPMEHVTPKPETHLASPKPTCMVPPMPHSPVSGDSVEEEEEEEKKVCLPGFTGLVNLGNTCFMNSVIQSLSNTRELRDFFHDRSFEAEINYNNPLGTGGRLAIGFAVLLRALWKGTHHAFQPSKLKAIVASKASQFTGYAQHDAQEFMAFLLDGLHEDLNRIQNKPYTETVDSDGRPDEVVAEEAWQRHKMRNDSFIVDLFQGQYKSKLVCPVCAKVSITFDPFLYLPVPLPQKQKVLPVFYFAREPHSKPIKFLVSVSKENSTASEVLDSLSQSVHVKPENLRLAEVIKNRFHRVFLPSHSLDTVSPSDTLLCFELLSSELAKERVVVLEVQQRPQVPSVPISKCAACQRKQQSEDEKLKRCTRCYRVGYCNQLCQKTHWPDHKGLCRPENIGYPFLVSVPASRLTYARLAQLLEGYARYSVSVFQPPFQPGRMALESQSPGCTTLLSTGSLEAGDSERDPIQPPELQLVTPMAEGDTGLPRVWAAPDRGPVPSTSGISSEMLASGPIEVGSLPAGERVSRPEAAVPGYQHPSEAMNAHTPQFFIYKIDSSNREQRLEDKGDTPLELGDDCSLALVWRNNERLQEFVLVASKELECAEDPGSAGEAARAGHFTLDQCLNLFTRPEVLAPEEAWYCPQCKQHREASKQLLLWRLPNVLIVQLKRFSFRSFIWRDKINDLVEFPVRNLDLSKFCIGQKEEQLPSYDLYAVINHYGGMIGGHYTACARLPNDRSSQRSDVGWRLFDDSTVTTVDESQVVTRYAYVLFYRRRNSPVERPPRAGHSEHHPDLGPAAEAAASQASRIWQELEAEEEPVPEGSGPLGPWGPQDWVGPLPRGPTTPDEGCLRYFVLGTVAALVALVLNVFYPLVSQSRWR
UniProt Q96T88: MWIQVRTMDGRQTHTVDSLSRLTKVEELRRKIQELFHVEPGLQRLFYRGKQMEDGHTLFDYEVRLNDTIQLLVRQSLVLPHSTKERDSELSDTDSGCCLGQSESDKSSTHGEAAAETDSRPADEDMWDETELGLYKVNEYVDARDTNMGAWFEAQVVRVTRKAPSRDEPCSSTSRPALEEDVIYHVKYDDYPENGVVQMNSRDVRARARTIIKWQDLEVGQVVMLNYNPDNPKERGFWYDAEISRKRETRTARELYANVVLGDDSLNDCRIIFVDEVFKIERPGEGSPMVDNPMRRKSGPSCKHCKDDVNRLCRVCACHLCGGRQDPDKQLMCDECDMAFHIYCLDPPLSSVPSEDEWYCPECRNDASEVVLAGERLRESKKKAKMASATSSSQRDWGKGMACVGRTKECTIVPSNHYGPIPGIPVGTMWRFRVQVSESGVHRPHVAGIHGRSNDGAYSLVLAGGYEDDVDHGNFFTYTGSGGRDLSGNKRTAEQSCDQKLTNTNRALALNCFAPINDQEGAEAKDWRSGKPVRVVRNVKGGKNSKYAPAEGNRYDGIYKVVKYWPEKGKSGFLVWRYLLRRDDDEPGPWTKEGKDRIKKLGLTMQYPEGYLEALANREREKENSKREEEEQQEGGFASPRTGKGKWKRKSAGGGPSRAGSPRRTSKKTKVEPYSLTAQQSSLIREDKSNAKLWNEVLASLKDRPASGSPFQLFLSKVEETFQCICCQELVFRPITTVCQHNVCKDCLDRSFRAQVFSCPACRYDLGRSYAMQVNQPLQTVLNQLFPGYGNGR

Each target was assayed with Cc1cc(ccc1-c1ccccc1)C(=O)N1CCCN(CC1)C(=O)CCl [compound 10] (assay: probe-labelled cysteine peptide fold change vs DMSO (competition) (log2 fold change); higher = less target engagement (more negative = stronger competition)). Conditions: 50 µM; THP-1; incubation time: 4 h.
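Also: competitive profiling in live THP-1 cells: cysteine peptides tagged with an iodoacetamide desthiobiotin (IA-DTB) probe, intensity after compound treatment relative to DMSO-treated cells.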

Target	probe-labelled cysteine peptide fold change
USP48_Q86UV5_290_LLSLPCTLNLQLMR (UniProt Q86UV5)	-0.403
UBXN7_O94888_38_HMLEACNNNLEMAVTMFLDGGGIAEEPSTSSASVSTVRPHTEEEVR (UniProt O94888)	0.00125
UPF1_Q92900_852_DFIILSCVR (UniProt Q92900)	0.259
UHRF1BP1_Q6BDS2_384_HCEAMETR (UniProt Q6BDS2)	-0.0746
USP42_Q9H9J4_867_SEEPCEQPLLVHPSGDHAR (UniProt Q9H9J4)	0.0592
USP48_Q86UV5_145_DYEPQTICEHLQYLFALLQNSNRR (UniProt Q86UV5)	0.166
UNK_Q9C0B0_147_NGLHCAFAHGPHDLR (UniProt Q9C0B0)	-0.0329
UNC45A_Q9H3U1_395_LCENYIK (UniProt Q9H3U1)	0.0172
USP19_O94966_656+659_LVCPVCAK (UniProt O94966)	-1.2
UHRF1BP1L_A0JNW5_398_NGWANELLHEFECNVEMLK (UniProt A0JNW5)	-0.158
UFL1_O94874_708_CVPQIIAFLNSK (UniProt O94874)	0.189
USP8_P40818_214_RMQDYQDSCILHSLSVPEEAISPGVTASWIEAHLPDDSK (UniProt P40818)	-0.00185
USP7_Q93009_961_IIGVHQEDELLECLSPATSR (UniProt Q93009)	0.108
UNK_Q9C0B0_299+308_CNDMQQSGSCPR (UniProt Q9C0B0)	-0.46
USP15_Q9Y4E8_570_DDIYVFEININRTEDTEHVIIPVCLR (UniProt Q9Y4E8)	0.224
USP19_O94966_833_GLCRPENIGYPFLVSVPASR (UniProt O94966)	-0.111
UGP2_Q16851_123_LNGGLGTSMGCK (UniProt Q16851)	-0.793
UHRF1_Q96T88_497_RTAEQSCDQK (UniProt Q96T88)	0.0439
URB1_O60287_473_TVDHCLNK (UniProt O60287)	0.509
UIMC1_Q96RL1_348_NECISEDMGDEDKEER (UniProt Q96RL1)	-0.143
USP34_Q70CQ2_111_HCTTINIDSTWQDESNQAEEPLNIDRECNEGSTER (UniProt Q70CQ2)	0.222

Look-ups from the list:
probe-labelled cysteine peptide fold change, UHRF1_Q96T88_497_RTAEQSCDQK (UniProt Q96T88) reads 0.0439
probe-labelled cysteine peptide fold change, USP48_Q86UV5_145_DYEPQTICEHLQYLFALLQNSNRR (UniProt Q86UV5) reads 0.166
